In patent publication US20220380471A1 one finds binding data, which are given here for seven molecules.

In one test the target is T1, hB7H3-His (human) (UniProt Q5ZPR3).
T1 sequence (looked up): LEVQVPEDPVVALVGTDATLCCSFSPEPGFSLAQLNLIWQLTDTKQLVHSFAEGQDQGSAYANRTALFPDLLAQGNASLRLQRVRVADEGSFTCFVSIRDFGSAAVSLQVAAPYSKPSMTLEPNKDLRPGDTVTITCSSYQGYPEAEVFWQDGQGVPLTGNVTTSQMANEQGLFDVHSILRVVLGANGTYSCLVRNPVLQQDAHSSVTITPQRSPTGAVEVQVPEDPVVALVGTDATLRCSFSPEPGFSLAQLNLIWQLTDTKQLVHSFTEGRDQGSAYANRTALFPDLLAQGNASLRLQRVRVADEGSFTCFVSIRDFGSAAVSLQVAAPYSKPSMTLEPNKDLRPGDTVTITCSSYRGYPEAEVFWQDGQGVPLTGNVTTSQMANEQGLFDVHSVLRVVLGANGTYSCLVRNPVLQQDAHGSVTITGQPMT
Put plainly: ELISA, purified VHH. In general terms: In an ELISA, binding on a coated surface is turned into a signal by an enzyme label.

A further test deals with T2, mouse B7H3-His (mouse) (UniProt Q8VE98).
T2 sequence (looked up): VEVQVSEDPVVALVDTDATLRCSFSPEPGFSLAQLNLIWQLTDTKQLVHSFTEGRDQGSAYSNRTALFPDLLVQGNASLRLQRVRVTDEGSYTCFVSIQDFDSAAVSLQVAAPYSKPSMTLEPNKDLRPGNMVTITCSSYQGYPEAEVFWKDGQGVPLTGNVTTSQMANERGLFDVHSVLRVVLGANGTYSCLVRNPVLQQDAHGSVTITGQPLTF
Nature of the test: ELISA, purified VHH.

In test [1] the target is T3, B7H3-hFc (human) (UniProt Q5ZPR3).
T3 sequence: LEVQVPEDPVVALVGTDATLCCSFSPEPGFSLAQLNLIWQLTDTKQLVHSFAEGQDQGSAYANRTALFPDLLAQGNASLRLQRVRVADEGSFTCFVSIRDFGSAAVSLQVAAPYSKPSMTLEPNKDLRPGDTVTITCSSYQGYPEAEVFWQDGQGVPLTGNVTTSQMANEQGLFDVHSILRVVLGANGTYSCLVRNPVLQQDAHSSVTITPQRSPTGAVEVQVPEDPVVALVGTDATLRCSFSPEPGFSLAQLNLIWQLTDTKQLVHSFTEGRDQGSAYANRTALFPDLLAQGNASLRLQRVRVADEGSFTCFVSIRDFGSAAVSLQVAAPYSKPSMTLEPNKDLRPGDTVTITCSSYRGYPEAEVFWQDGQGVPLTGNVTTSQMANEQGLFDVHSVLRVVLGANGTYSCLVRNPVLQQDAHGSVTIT
Put plainly: ELISA on coated B7H3-hFc, detection with HRP anti-FLAG M2.

Test [2] deals with T3, B7H3-hFc (human). Put plainly: monoclonal phage ELISA on B7H3-hFc with IAB-hFc as tag control.
Test [3] has as its target T3, B7H3-hFc (human). Nature of the test: ELISA (summary of Example 2).
Test [4] addresses T4, B7H3 (CD276) on human B7H3-positive tumor cell lines (human) (UniProt Q5ZPR3).
T4 sequence (looked up): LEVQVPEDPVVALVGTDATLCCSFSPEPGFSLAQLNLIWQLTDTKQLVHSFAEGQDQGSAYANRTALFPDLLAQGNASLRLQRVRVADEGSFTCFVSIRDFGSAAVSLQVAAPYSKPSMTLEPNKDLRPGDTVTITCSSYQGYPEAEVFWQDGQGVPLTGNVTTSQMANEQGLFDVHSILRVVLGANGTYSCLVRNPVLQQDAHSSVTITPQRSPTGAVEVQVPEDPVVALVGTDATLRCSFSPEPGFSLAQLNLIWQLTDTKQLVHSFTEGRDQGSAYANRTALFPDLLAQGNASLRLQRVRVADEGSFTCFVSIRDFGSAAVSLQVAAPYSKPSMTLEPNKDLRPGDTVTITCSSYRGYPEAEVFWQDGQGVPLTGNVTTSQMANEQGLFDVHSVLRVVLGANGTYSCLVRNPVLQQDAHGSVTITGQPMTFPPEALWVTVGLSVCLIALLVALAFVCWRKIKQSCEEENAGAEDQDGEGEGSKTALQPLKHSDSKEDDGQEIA
Nature of the test: flow cytometry, 10 ug/mL antibody, APC anti-FLAG; IMR32, A431 and (untitled panel) NBEB cells, IMR32-B7-H3 KO as control.

The target of test [5] is T4, B7H3 (CD276) on human B7H3-positive tumor cell lines (human). Nature of the test: flow cytometry (summary of Example 2). For orientation: In flow cytometry, cells or beads pass a laser one at a time.
Test [6] shares this target. Nature of the test: flow cytometry on IMR32, A431 and NBEB cells, 10 ug/mL.
For test [7] the target is unchanged. Nature of the test: flow cytometry, 10 ug/mL antibody, APC anti-FLAG; IMR32, A431 and NBEB cells, IMR32-B7-H3 KO as control.

These are yes or no findings as the source states them, for the method shown. Some binding calls cover weakened binding; strength is not graded here. For part of these data: Sequences can lack the tags named with a protein.

B1: RWG4 (VHH)
VHH: QVQLVQSGGGLVQPGGSLRLSCAASGFTFSVYWFYWVRQAPRQGLEWVSTIASNGSTYYSDSVKGRFTISRDNAKNTVYLQMNSLKPEDTAVYYCVSDPDYYSDYERAYKFWAQGTQVTVSS
B1: in the test with hB7H3-His (human), the binding result is reported as “binds”.

B2: RWG8 (VHH)
VHH: DVQLVESGGGLVQPGGSLRLSCAASGFTFSRYWMGWFRQAPGKGVEWVSTINSGGGSTYYADSVKGRFTISRDNAKNTLYLQLNNLKTEDTAMYYCAKEQWRTGSRGQGTQVTVSS
For B2, the binding result in the test with mouse B7H3-His (mouse) and in the test with hB7H3-His (human) was “binds” in each case.

B3: RFB1 (protein, not shown: small tags and cut ends)
VH: QEQLKESGGRLVTPGTPLTLTCTVSGFSPNNYGVSWVRQPPGKGLEWIGMSSTAGATYYANWAKGRFTISKTSTTVDLEITSPTTEDTATYFCAKGTPSLSYGNIWGPGTLVTVSSGGGGSGGGGSGGGGSAQGPTQTPGGGGSGTEVVVK
Regarding B3, the binding entry (in the test with B7H3-hFc (human) [1]; in the test with B7H3-hFc (human) [2]; with B7H3-hFc (human) [3]; in [4]; in [5]; in test [6]) was “binds” throughout.

B4: RFA1 (protein, not shown: small tags and cut ends)
VH: QSLEESGGGLVTPGGTLTLTCTVSGFSLSSYGMSWVRQAPGKGLEWIGSMANNGDPYYASWAKGRFTISKTSTTVDLKITSPTTEDTATYFCVRAPWGSHSMWGPGTLVTVSSGGGGSGGGGSGGGGSDPVLTQTAGGGTNVEIK
Regarding B4, the binding result (in the test with B7H3-hFc (human) [1]; in the test with B7H3-hFc (human) [2]; in test [7]; with B7H3-hFc (human) [3]; in test [5]; in test [6]) was “binds” each time.

B5: RWH1 (VHH)
VHH: AVQLVESGGGSVQAGGSLRLSCAASGMNLDNYVRGWLRQAPGSKCEFVSIIRRDGTTDYGDSVKGRFTISRDNAKNTVYLQMNSLKPDDTAVYYCAAIVVPRAAEYACDGLPYRGQGTQVTVSS
With B5, the binding entry in the test with hB7H3-His (human) was “binds”.

B6: RWB12 (VHH)
VHH: QVQLVESGGGSVQVGGSLRLSCAASGFTYNSYSVGWFRQAPGKEREGVAAINSGGSSTYYAASVKGRFTISRDNAKNTVYLQMNSLKPEDTAMYYCAARSPSPLTFQTRTLREDSYNYWGQGTQVTVSS
Regarding B6, in the test with hB7H3-His (human), the binding result is “binds”.

B7: RWC4 (VHH)
VHH: EVQLVESGGGSVQAGGSLRLSCVASEDSTSAMCMGWFRQAPGKEREGVACINPTGEVTWYGDSVKGRFTISRDTVKKIVYLQMNSLKPEDTAMYYCAARVTYGGDWSTDTDYEYWGQGTQVTVSS
As for B7, in the test with hB7H3-His (human), the binding entry is “binds”.
